The results in this text go back to article PMC10959363.

These are yes or no findings as the source states them, for the method shown. Binding seen in cells or lysates may run through a third protein. For part of these data: Binding can be weak; no strength is given. For part of these data: Tags and fused reporters may be left off the sequences shown.

Test [1] deals with KSHV vFLIP, Flag-tagged (vFLIP-Flag) (Kaposi's sarcoma-associated herpesvirus (KSHV)). Nature of the test: co-IP; KMM cells lentivirally transduced with SERBP1-HA and the tagged partner; lysate immunoprecipitated by the partner's tag (anti-Myc or anti-Flag antibody) on magnetic beads at 4°C overnight, washed with TBST, Western blotting. (In general: Immunoblotting shows a protein as a band on a membrane.)

For test [2], the target named is Sirtuin 3, Myc-tagged (SIRT3-Myc). Described as above.
Test [3] has as its target Sirtuin 3 (SIRT3), endogenous (rat (endogenous in MM and KMM cells)). Kind of test: co-IP; endogenous proteins in MM and KMM cell lysates, and in KMM cells transduced with vIL-6-Flag or its control pHAGE; immunoprecipitated with anti-SIRT3 antibody.

B1: SERPINE1 mRNA binding protein 1, HA-tagged (SERBP1-HA) (protein, UniProt Q6AXS5 1-407)
chain: MPGHLQEGFGCVVTNRFDQLFDDESDPFEVLKAAENKKKEAGGGGVGGPGAKSAAQAAAQTNSNAAGKQLRKESQKDRKNPLPPSVGVADKKEETQPPVALKKEGIRRVGRRPDQQLQGDGKIIDRRPERRPPRERRFEKPLEEKGEGGEFSVDRPIIERPIRGRGGLGRGRGGRGRGMGRGDGFDSRGKREFDRHSGSDRSSFSHYSGLKHEDKRGGSGSHNWGTVKDELTESPKYIQKQISYNCSDLEQSNVTEETPEGEEHPVADTENKENEVEEVKEEGPKEMTLDEWKAIQNKDRAKVEFNIRKPNEGADGQWKKGFVLHKSKSEEAHAEDSVMDHHFRKPANDITSQLEINFGDLGRPGRGGRGGRGGRGRGGRPNRGSRTDKSSASAPDVDDPEAFPALA
B1: the binding entry in test [1] was “no binding”; in test [2], “binds”.

B2: SERPINE1 mRNA binding protein 1 (SERBP1), endogenous (protein, UniProt Q6AXS5 1-407)
chain: MPGHLQEGFGCVVTNRFDQLFDDESDPFEVLKAAENKKKEAGGGGVGGPGAKSAAQAAAQTNSNAAGKQLRKESQKDRKNPLPPSVGVADKKEETQPPVALKKEGIRRVGRRPDQQLQGDGKIIDRRPERRPPRERRFEKPLEEKGEGGEFSVDRPIIERPIRGRGGLGRGRGGRGRGMGRGDGFDSRGKREFDRHSGSDRSSFSHYSGLKHEDKRGGSGSHNWGTVKDELTESPKYIQKQISYNCSDLEQSNVTEETPEGEEHPVADTENKENEVEEVKEEGPKEMTLDEWKAIQNKDRAKVEFNIRKPNEGADGQWKKGFVLHKSKSEEAHAEDSVMDHHFRKPANDITSQLEINFGDLGRPGRGGRGGRGGRGRGGRPNRGSRTDKSSASAPDVDDPEAFPALA
B2: the binding entry in test [3] is reported as “binds”.
